Data as given in patent publication US8114816B2, “Herbicidally active 4-(3-alkylsulfinylbenzoyl)pyrazoles” (Bayer Cropscience AG, priority 2008, dated 2012).
Some of these results come from one statement about several compounds together. At least one compound was matched to its structure with a doubt left.

How the values were obtained:
Assay type in all cases: in vivo
Amaranthus retroflexus = assay: Herbicidal pre-emergence effect against harmful plants; conditions: application rate 80 g/ha, scored visually after 3 weeks, 100% = plants have died
Abutilon theophrasti [1] = assay: Herbicidal post-emergence activity against harmful plants; conditions: application rate 80 g/ha, scored visually after approximately 3 weeks, 100% = plants have died
Veronica Persica [2] = assay: Herbicidal pre-emergence effect against harmful plants; conditions: application rate 80 g/ha, scored visually after 3 weeks, 100% = plants have died
Echinochloa crus galli [3] = assay: Herbicidal post-emergence activity against harmful plants; conditions: application rate 80 g/ha, scored visually after approximately 3 weeks, 100% = plants have died
Matricaria inodora = assay: Herbicidal pre-emergence effect against harmful plants; conditions: application rate 80 g/ha, scored visually after 3 weeks, 100% = plants have died
Veronica Persica [4] = assay: Herbicidal post-emergence activity against harmful plants; conditions: application rate 80 g/ha, scored visually after approximately 3 weeks, 100% = plants have died
Stellaria media = assay: as above; conditions: application rate 80 g/ha, scored visually after approximately 3 weeks, 100% = plants have died
Abutilon theophrasti [5] = assay: Herbicidal pre-emergence effect against harmful plants; conditions: application rate 80 g/ha, scored visually after 3 weeks, 100% = plants have died
Echinochloa crus galli [6] = assay: as above; conditions: application rate 80 g/ha, scored visually after 3 weeks, 100% = plants have died
Setaria viridis = assay: Herbicidal post-emergence activity against harmful plants; conditions: application rate 80 g/ha, scored visually after approximately 3 weeks, 100% = plants have died
Viola tricolor = assay: as above; conditions: application rate 80 g/ha, scored visually after approximately 3 weeks, 100% = plants have died

CC[S+]([O-])c1c(S(C)(=O)=O)ccc(C(=O)c2cnn(C)c2O)c1Cl (stereo not drawn) [1-2]
at least 90%: herbicidal activity in percent against Amaranthus retroflexus (Amaranthus retroflexus) | herbicidal activity in percent against Abutilon theophrasti (Abutilon theophrasti [1]) | herbicidal activity in percent against Veronica Persica (Veronica Persica [2]) | herbicidal activity in percent against Echinochloa crus galli (Echinochloa crus galli [3])

CC[S+]([O-])c1c(S(C)(=O)=O)ccc(C(=O)c2cnn(C)c2O)c1C (stereo not drawn) [1-10]
at least 90%: herbicidal activity in percent against Matricaria inodora (Matricaria inodora) | herbicidal activity in percent against Veronica Persica (Veronica Persica [4]) | herbicidal activity in percent against Stellaria media (Stellaria media) | herbicidal activity in percent against Abutilon theophrasti (Abutilon theophrasti [5])

Cc1c(C(=O)c2cnn(C)c2O)ccc(Cl)c1[S+](C)[O-] (stereo not drawn) [1-237]
at least 90%: herbicidal activity in percent against Amaranthus retroflexus (Amaranthus retroflexus) | herbicidal activity in percent against Abutilon theophrasti (Abutilon theophrasti [1]) | herbicidal activity in percent against Veronica Persica (Veronica Persica [4]) | herbicidal activity in percent against Stellaria media (Stellaria media) | herbicidal activity in percent against Echinochloa crus galli (Echinochloa crus galli [6]) | herbicidal activity in percent against Abutilon theophrasti (Abutilon theophrasti [5]) | herbicidal activity in percent against Echinochloa crus galli (Echinochloa crus galli [3])

CC[S+]([O-])c1c(Cl)ccc(C(=O)c2cnn(C)c2O)c1C (stereo not drawn) [1-238]
at least 90%: herbicidal activity in percent against Amaranthus retroflexus (Amaranthus retroflexus) | herbicidal activity in percent against Abutilon theophrasti (Abutilon theophrasti [1]) | herbicidal activity in percent against Echinochloa crus galli (Echinochloa crus galli [6]) | herbicidal activity in percent against Setaria viridis (Setaria viridis) | herbicidal activity in percent against Abutilon theophrasti (Abutilon theophrasti [5]) | herbicidal activity in percent against Viola tricolor (Viola tricolor) | herbicidal activity in percent against Echinochloa crus galli (Echinochloa crus galli [3])

CCn1ncc(C(=O)c2ccc(S(C)(=O)=O)c([S+](C)[O-])c2C)c1O (stereo not drawn) [2-9]
at least 90%: herbicidal activity in percent against Amaranthus retroflexus (Amaranthus retroflexus) | herbicidal activity in percent against Matricaria inodora (Matricaria inodora) | herbicidal activity in percent against Veronica Persica (Veronica Persica [4]) | herbicidal activity in percent against Stellaria media (Stellaria media) | herbicidal activity in percent against Echinochloa crus galli (Echinochloa crus galli [6]) | herbicidal activity in percent against Abutilon theophrasti (Abutilon theophrasti [5]) | herbicidal activity in percent against Veronica Persica (Veronica Persica [2])

CCn1ncc(C(=O)c2ccc(S(C)(=O)=O)c([S+]([O-])CC)c2C)c1O (stereo not drawn) [2-10]
at least 90%: herbicidal activity in percent against Amaranthus retroflexus (Amaranthus retroflexus) | herbicidal activity in percent against Echinochloa crus galli (Echinochloa crus galli [6]) | herbicidal activity in percent against Setaria viridis (Setaria viridis) | herbicidal activity in percent against Abutilon theophrasti (Abutilon theophrasti [5]) | herbicidal activity in percent against Viola tricolor (Viola tricolor) | herbicidal activity in percent against Veronica Persica (Veronica Persica [2])

CCC[S+]([O-])c1c(S(C)(=O)=O)ccc(C(=O)c2cnn(CC)c2O)c1C (stereo not drawn) [2-11]
at least 90%: herbicidal activity in percent against Amaranthus retroflexus (Amaranthus retroflexus) | herbicidal activity in percent against Abutilon theophrasti (Abutilon theophrasti [1]) | herbicidal activity in percent against Veronica Persica (Veronica Persica [2]) | herbicidal activity in percent against Echinochloa crus galli (Echinochloa crus galli [3])

CCn1ncc(C(=O)c2ccc(Cl)c([S+](C)[O-])c2C)c1O (stereo not drawn) [2-237]
at least 90%: herbicidal activity in percent against Amaranthus retroflexus (Amaranthus retroflexus) | herbicidal activity in percent against Echinochloa crus galli (Echinochloa crus galli [6]) | herbicidal activity in percent against Abutilon theophrasti (Abutilon theophrasti [5])

CCn1ncc(C(=O)c2ccc(Cl)c([S+]([O-])CC)c2C)c1O (stereo not drawn) [2-238]
at least 90%: herbicidal activity in percent against Amaranthus retroflexus (Amaranthus retroflexus) | herbicidal activity in percent against Matricaria inodora (Matricaria inodora) | herbicidal activity in percent against Echinochloa crus galli (Echinochloa crus galli [6]) | herbicidal activity in percent against Setaria viridis (Setaria viridis) | herbicidal activity in percent against Abutilon theophrasti (Abutilon theophrasti [5]) | herbicidal activity in percent against Viola tricolor (Viola tricolor)
